Measured values as given in patent US20220347236A1.

Tests used:
[1] = target: FcγRI recombinant protein; test: BLI (Octet RED384), receptor immobilised on AR2G biosensor, IgETRAP at various concentrations
[2] = target: FcγRIIIB recombinant protein; test: as above
[3] = target: FcγRIIIA recombinant protein; test: as above
[4] = target: FcγRIIA recombinant protein; test: as above
[5] = target: FcγRIIB recombinant protein; test: as above
[6] = target: FcγRIIIA recombinant protein; test: BLI (Octet RED384), FcγRIIIA immobilised on AR2G biosensor, IgETRAP in solution at 0.25-4 µM
[7] = target: FcγRI recombinant protein; test: BLI (Octet RED384), FcγRI immobilised on AR2G biosensor, IgETRAP in solution at 0.25-4 µM
[8] = target: FcγRIIB recombinant protein; test: BLI response at 4 uM on immobilised FcγRIIB, bar chart
[9] = target: FcγRIIA recombinant protein; test: BLI response at 4 uM on immobilised FcγRIIA, bar chart
[10] = target: FcγRIIIB recombinant protein; test: BLI response at 4 uM on immobilised FcγRIIIB, bar chart
[11] = target: FcγRIIIA recombinant protein; test: BLI response at 4 uM on immobilised FcγRIIIA, bar chart
[12] = target: FcγRI recombinant protein; test: BLI response at 4 uM on immobilised FcγRI, bar chart
[13] = target: FcγRIIIB recombinant protein; test: BLI (Octet RED384), FcγRIIIB immobilised on AR2G biosensor (sheet label FcγRIIIB), IgETRAP in solution at 0.25-4 µM
[14] = target: FcγRIIB recombinant protein; test: BLI (Octet RED384), FcγRIIB immobilised on AR2G biosensor, IgETRAP in solution at 0.25-4 µM
[15] = target: FcγRIIA recombinant protein; test: BLI (Octet RED384), FcγRIIA immobilised on AR2G biosensor, IgETRAP in solution at 0.25-4 µM

B1: FcεRIαECD-Fc2ST (Fc fusion)
chain: VPQKPKVSLNPPWNRIFKGENVTLTCNGNNFFEVSSTKWFHNGSLSEETNSSLNIVNAKFEDSGEYKCQHQQVNESEPVYLEVFSDWLLLQASAEVVMEGQPLFLRCHGWRNWDVYKVIYYKDGEALKYWYENHNISITNATVEDSGTYYCTGKVWQLDYESEPLNITVIKAPREKYWLQRNTGRGGEEKKGSKEKEEQEERETKTPECPSHTQPLGVFLFPPKPKDTLMISRTPEVTCVVVDVSQEDPEVQFNWYVDGVEVHNAKTKPREEQFNSTYRVVSVLTVLHQDWLNGKEYKCKVSNKGLPSSIEKTISKAKGQPREPQVYTLPPSQEEMTKNQVSLTCLVKGFYPSDIAVEWESNGQPENNYKTTPPVLDSDGSFFLYSRLTVDKSRWQEGNVFSCSVMHEALHNHYTQKSLSLSLGK
modifications: sialic acid added (α-2,6-sialic acid transferase co-expressed)
B1 was tested, and the binding [1] was “no binding”, the binding [2] was “no binding” and the binding [3] was “no binding”. The binding [4] was “no binding”, the binding [5] was “no binding” and the binding [6] was “no binding (tested: 4 µM)”. The binding [7] was “no binding (tested: 4 µM)”, the binding [8] was “no binding (tested: 4 uM)” and the binding [9] was “no binding (tested: 4 uM)”. The binding [10] was “no binding (tested: 4 uM)”, the binding [11] was “no binding (tested: 4 uM)” and the binding [12] was “no binding (tested: 4 uM)”. For the same binder, the binding [13] was “no binding (tested: 4 µM)”, the binding [14] was “no binding (tested: 4 µM)” and the binding [15] was “no binding (tested: 4 µM)”.

These are yes or no findings as the source states them, for the method shown.
